{"sequences": {"note": "Chains of the proteins cited; added tags and fusions are not shown. Lines headed by an entry give the natural chain unless they say otherwise; changes in a name come on top.", "UniProt O02108": "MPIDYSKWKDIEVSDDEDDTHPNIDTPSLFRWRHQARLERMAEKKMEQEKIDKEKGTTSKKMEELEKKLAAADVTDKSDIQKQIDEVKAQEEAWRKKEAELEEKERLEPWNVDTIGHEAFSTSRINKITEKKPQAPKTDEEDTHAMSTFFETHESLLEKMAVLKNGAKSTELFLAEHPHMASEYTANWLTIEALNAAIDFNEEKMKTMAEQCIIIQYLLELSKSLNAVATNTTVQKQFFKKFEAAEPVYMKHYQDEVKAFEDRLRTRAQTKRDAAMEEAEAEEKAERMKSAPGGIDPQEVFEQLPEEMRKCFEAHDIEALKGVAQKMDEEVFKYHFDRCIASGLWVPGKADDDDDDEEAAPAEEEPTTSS", "UniProt Q20774": "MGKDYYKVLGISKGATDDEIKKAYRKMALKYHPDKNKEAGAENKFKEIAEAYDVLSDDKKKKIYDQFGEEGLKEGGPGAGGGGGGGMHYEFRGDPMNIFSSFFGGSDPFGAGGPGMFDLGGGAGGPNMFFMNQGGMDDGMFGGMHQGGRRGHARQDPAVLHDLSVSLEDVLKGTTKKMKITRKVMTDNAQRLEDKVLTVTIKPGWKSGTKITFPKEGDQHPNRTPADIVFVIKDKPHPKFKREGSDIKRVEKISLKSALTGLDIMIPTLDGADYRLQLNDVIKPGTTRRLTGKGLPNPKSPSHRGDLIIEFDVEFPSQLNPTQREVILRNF"}, "source": "paper PMC8560915", "target": "CDC-37·DNJ-13 complex (with *CDC-37) (nematode | C. elegans) (UniProt O02108+Q20774)", "assay": "AUC; sedimentation velocity with fluorescence detection; 300 nM *CDC-37 with or without 2 µM binding partners; 42,000 rpm, 20 °C; 40 mM HEPES/KOH pH 7.5, 20 mM KCl, 1 mM DTT, 5 mM MgCl2; with and without ATPγS for HSP-90; both purified", "note": "These are yes or no findings as the source states them, for the method shown. Some results given as binding are weak or reduced against the parent protein; the word gives no strength."}
{"substance": "HSP-90 (from UniProt Q18688 1-702)", "values": [{"measurement": "binding", "result": "binds"}]}
